No constants are given. Whether binding was seen depends on the method and setting. In cells and extracts the contact can be indirect. These calls come from enrichment with a bait or labelling near it, and not all partners need be listed.
B1: Ankyrin repeat and SAM domain-containing protein 1A (protein, UniProt Q92625-1 1-1134)
chain: MGKEQELLEAARTGHLPAVEKLLSGKRLSSGFGGGGGGGSGGGGGGSGGGGGGLGSSSHPLSSLLSMWRGPNVNCVDSTGYTPLHHAALNGHKDVVEVLLRNDALTNVADSKGCYPLHLAAWKGDAQIVRLLIHQGPSHTRVNEQNNDNETALHCAAQYGHTEVVKVLLEELTDPTMRNNKFETPLDLAALYGRLEVVKMLLNAHPNLLSCNTKKHTPLHLAARNGHKAVVQVLLDAGMDSNYQTEMGSALHEAALFGKTDVVQILLAAGTDVNIKDNHGLTALDTVRELPSQKSQQIAALIEDHMTGKRSTKEVDKTPPPQPPLISSMDSISQKSQGDVEKAVTELIIDFDANAEEEGPYEALYNAISCHSLDSMASGRSSDQDSTNKEAEAAGVKPAGVRPRERPPPPAKPPPDEEEEDHIDKKYFPLTASEVLSMRPRIHGSAAREEDEHPYELLLTAETKKVVLVDGKTKDHRRSSSSRSQDSAEGQDGQVPEQFSGLLHGSSPVCEVGQDPFQLLCTAGQSHPDGSPQQGACHKASMQLEETGVHAPGASQPSALDQSKRVGYLTGLPTTNSRSHPETLTHTASPHPGGAEEGDRSGARSRAPPTSKPKAELKLSRSLSKSDSDLLTCSPTEDATMGSRSESLSNCSIGKKRLEKSPSFASEWDEIEKIMSSIGEGIDFSQERQKISGLRTLEQSVGEWLESIGLQQYESKLLLNGFDDVHFLGSNVMEEQDLRDIGISDPQHRRKLLQAARSLPKVKALGYDGNSPPSVPSWLDSLGLQDYVHSFLSSGYSSIDTVKNLWELELVNVLKVQLLGHRKRIIASLADRPYEEPPQKPPRFSQLRCQDLLSQTSSPLSQNDSCTGRSADLLLPPGDTGRRRHDSLHDPAAPSRAERFRIQEEHREAKLTLRPPSLAAPYAPVQSWQHQPEKLIFESCGYEANYLGSMLIKDLRGTESTQDACAKMRKSTEHMKKIPTIILSITYKGVKFIDASNKNVIAEHEIRNISCAAQDPEDLCTFAYITKDLQTSHHYCHVFSTVDVNLTYEIILTLGQAFEVAYQLALQAQKSRATGASAAEMIETKSSKPVPKPRVGVRKSALEPPDMDQDAQSHASVSWVVDPKPDSKRSLSTN
B2: Sodium-dependent neutral amino acid transporter B(0)AT2 (protein, UniProt Q9H2J7-1 1-730)
chain: MPKNSKVVKRELDDDVTESVKDLLSNEDAADDAFKTSELIVDGQEEKDTDVEEGSEVEDERPAWNSKLQYILAQVGFSVGLGNVWRFPYLCQKNGGGAYLLPYLILLMVIGIPLFFLELSVGQRIRRGSIGVWNYISPKLGGIGFASCVVCYFVALYYNVIIGWSLFYFSQSFQQPLPWDQCPLVKNASHTFVEPECEQSSATTYYWYREALNISSSISESGGLNWKMTICLLAAWVMVCLAMIKGIQSSGKIIYFSSLFPYVVLICFLIRAFLLNGSIDGIRHMFTPKLEIMLEPKVWREAATQVFFALGLGFGGVIAFSSYNKRDNNCHFDAVLVSFINFFTSVLATLVVFAVLGFKANVINEKCITQNSETIMKFLKMGNISQDIIPHHINLSTVTAEDYHLVYDIIQKVKEEEFPALHLNSCKIEEELNKAVQGTGLAFIAFTEAMTHFPASPFWSVMFFLMLVNLGLGSMFGTIEGIVTPIVDTFKVRKEILTVICCLLAFCIGLIFVQRSGNYFVTMFDDYSATLPLLIVVILENIAVCFVYGIDKFMEDLKDMLGFAPSRYYYYMWKYISPLMLLSLLIASVVNMGLSPPGYNAWIEDKASEEFLSYPTWGLVVCVSLVVFAILPVPVVFIVRRFNLIDDSSGNLASVTYKRGRVLKEPVNLEGDDTSLIHGKIPSEMPSPNFGKNIYRKQSGSPTLDTAPNGRYGIGYLMADIMPDMPESDL
B3: Signal recognition particle receptor subunit alpha (protein, UniProt P08240-1 1-638)
chain: MLDFFTIFSKGGLVLWCFQGVSDSCTGPVNALIRSVLLQERGGNNSFTHEALTLKYKLDNQFELVFVVGFQKILTLTYVDKLIDDVHRLFRDKYRTEIQQQSALSLLNGTFDFQNDFLRLLREAEESSKIRAPTTMKKFEDSEKAKKPVRSMIETRGEKPKEKAKNSKKKGAKKEGSDGPLATSKPVPAEKSGLPVGPENGVELSKEELIRRKREEFIQKHGRGMEKSNKSTKSDAPKEKGKKAPRVWELGGCANKEVLDYSTPTTNGTPEAALSEDINLIRGTGSGGQLQDLDCSSSDDEGAAQNSTKPSATKGTLGGMFGMLKGLVGSKSLSREDMESVLDKMRDHLIAKNVAADIAVQLCESVANKLEGKVMGTFSTVTSTVKQALQESLVQILQPQRRVDMLRDIMDAQRRQRPYVVTFCGVNGVGKSTNLAKISFWLLENGFSVLIAACDTFRAGAVEQLRTHTRRLSALHPPEKHGGRTMVQLFEKGYGKDAAGIAMEAIAFARNQGFDVVLVDTAGRMQDNAPLMTALAKLITVNTPDLVLFVGEALVGNEAVDQLVKFNRALADHSMAQTPRLIDGIVLTKFDTIDDKVGAAISMTYITSKPIVFVGTGQTYCDLRSLNAKAVVAALMKA
B4: STAM-binding protein (protein, UniProt O95630-1 1-424)
chain: MSDHGDVSLPPEDRVRALSQLGSAVEVNEDIPPRRYFRSGVEIIRMASIYSEEGNIEHAFILYNKYITLFIEKLPKHRDYKSAVIPEKKDTVKKLKEIAFPKAEELKAELLKRYTKEYTEYNEEKKKEAEELARNMAIQQELEKEKQRVAQQKQQQLEQEQFHAFEEMIRNQELEKERLKIVQEFGKVDPGLGGPLVPDLEKPSLDVFPTLTVSSIQPSDCHTTVRPAKPPVVDRSLKPGALSNSESIPTIDGLRHVVVPGRLCPQFLQLASANTARGVETCGILCGKLMRNEFTITHVLIPKQSAGSDYCNTENEEELFLIQDQQGLITLGWIHTHPTQTAFLSSVDLHTHCSYQMMLPESVAIVCSPKFQETGFFKLTDHGLEEISSCRQKGFHPHSKDPPLFCSCSHVTVVDRAVTITDLR
B5: Metalloreductase STEAP3 (protein, UniProt Q658P3-2 1-498)
chain: MSHQPAVATKMPEEMDKPLISLHLVDSDSSLAKVPDEAPKVGILGSGDFARSLATRLVGSGFKVVVGSRNPKRTARLFPSAAQVTFQEEAVSSPEVIFVAVFREHYSSLCSLSDQLAGKILVDVSNPTEQEHLQHRESNAEYLASLFPTCTVVKAFNVISAWTLQAGPRDGNRQVPICGDQPEAKRAVSEMALAMGFMPVDMGSLASAWEVEAMPLRLLPAWKVPTLLALGLFVCFYAYNFVRDVLQPYVQESQNKFFKLPVSVVNTTLPCVAYVLLSLVYLPGVLAAALQLRRGTKYQRFPDWLDHWLQHRKQIGLLSFFCAALHALYSFCLPLRRAHRYDLVNLAVKQVLANKSHLWVEEEVWRMEIYLSLGVLALGTLSLLAVTSLPSIANSLNWREFSFVQSSLGFVALVLSTLHTLTYGWTRAFEESRYKFYLPPTFTLTLLVPCVVILAKALFLLPCISRRLARIRRGWERESTIKFTLPTDHALAEKTSHV
B6: Protein SGT1 homolog (protein, UniProt Q9Y2Z0-1 1-365)
chain: MAAAAAGTATSQRFFQSFSDALIDEDPQAALEELTKALEQKPDDAQYYCQRAYCHILLGNYCVAVADAKKSLELNPNNSTAMLRKGICEYHEKNYAAALETFTEGQKLDIETGFHRVGQAGLQLLTSSDPPALDSQSAGITGADANFSVWIKRCQEAQNGSESEVWTHQSKIKYDWYQTESQVVITLMIKNVQKNDVNVEFSEKELSALVKLPSGEDYNLKLELLHPIIPEQSTFKVLSTKIEIKLKKPEAVRWEKLEGQGDVPTPKQFVADVKNLYPSSSPYTRNWDKLVGEIKEEEKNEKLEGDAALNRLFQQIYSDGSDEVKRAMNKSFMESGGTVLSTNWSDVGKRKVEINPPDDMEWKKY

Protein sequences, listed by entry. Tags and fused reporters are not part of them.
UniProt Q8IWT6: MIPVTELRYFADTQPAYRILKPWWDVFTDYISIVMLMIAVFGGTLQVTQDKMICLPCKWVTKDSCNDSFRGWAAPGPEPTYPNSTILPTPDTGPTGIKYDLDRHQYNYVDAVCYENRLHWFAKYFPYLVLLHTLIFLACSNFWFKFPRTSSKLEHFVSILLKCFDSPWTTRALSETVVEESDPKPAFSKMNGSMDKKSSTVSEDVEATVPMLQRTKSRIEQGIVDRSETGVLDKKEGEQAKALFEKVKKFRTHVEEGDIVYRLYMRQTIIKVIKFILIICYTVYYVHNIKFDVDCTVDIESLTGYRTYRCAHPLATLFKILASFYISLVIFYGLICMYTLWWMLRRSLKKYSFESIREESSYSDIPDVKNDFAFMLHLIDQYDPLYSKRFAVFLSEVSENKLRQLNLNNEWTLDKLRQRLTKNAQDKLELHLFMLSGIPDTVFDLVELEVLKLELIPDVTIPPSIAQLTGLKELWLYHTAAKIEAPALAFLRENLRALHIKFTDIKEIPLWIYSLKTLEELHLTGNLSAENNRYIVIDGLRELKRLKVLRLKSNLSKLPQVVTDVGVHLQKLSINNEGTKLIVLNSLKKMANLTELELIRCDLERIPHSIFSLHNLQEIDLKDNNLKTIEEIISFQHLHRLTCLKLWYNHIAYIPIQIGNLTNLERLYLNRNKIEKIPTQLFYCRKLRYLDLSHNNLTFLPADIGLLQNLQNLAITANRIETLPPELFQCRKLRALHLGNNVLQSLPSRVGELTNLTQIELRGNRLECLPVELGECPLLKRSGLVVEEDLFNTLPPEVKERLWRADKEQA

Molecular target: LRRC8A-BirA*-HA fusion protein (human) (UniProt Q8IWT6)
Test: proximity labelling; BioID: HEK293 cells stably expressing LRRC8A-BirA*-HA (two clones), 50 uM biotin 24 h, RIPA lysis, streptavidin bead pull-down of biotinylated proteins, TMT labelling and LC-MS/MS; hits: FDR <= 0.05 and fold change >= 2 against the no-biotin control

| Binder | binding |
| --- | --- |
| B1 | binds |
| B2 | binds |
| B3 | binds |
| B4 | binds |
| B5 | binds |
| B6 | binds |
